Measured values taken from patent publication US12146003B2 (Bausch Health Ireland Limited, priority 2013, dated 2024).

Assays:
[1] = general procedure: hybrid (solid and solution phase) peptide synthesis; 2-chlorotrityl chloride (2-ClTrt) resin; HBTU/Cl-HOBt/DIEA (fragment condensation in solution); details: counter-ion exchange with ammonium acetate/AcOH
[2] = general procedure: hybrid (solid and solution phase) peptide synthesis; 2-chlorotrityl chloride resin; HBTU/Cl-HOBt/DIEA (fragment condensation in solution); details: whole synthesis, counter-ion exchange with ammonium acetate/AcOH
[3] = oxidative folding step, RP-HPLC, 215 nm
[4] = whole synthesis, RP-HPLC, 215 nm, scale 200 mmol
[5] = whole synthesis, scale 200 mmol

Substance | crude HPLC purity [1, 3] [% HPLC] | final HPLC purity [1, 3] [% pure] | final HPLC purity ([1]; purification step, RP-HPLC, 215 nm) | final HPLC purity ([1]; purification step, RP-HPLC, 215 nm, run 1) [% HPLC purity] | final HPLC purity ([1]; purification step, RP-HPLC, 215 nm, run 2) [%] | step yield ([1]; purification step) | step yield ([1]; purification step, run 1) [%] | step yield ([1]; purification step, run 2) [%] | final HPLC purity ([1]; whole synthesis, UPLC 215 nm, scale 50 g) | crude HPLC purity ([1]; whole synthesis, RP-HPLC, 215 nm, scale 5.2 mmol) [%] | crude HPLC purity [1, 4] [%] | crude yield ([1]; whole synthesis, scale 5.2 mmol) [%] | crude mass [1, 5] [g] | crude yield [1, 5] [%] | crude mass ([2]; scale 5.2 mmol) [g] | crude HPLC purity ([1]; whole synthesis, RP-HPLC, 215 nm, scale 3.4 mmol) [%] | crude yield ([1]; whole synthesis, scale 3.4 mmol) [%] | crude mass ([2]; scale 3.4 mmol) [g]
Asn^1-Asp^2-Glu^3-Cys^4-Glu^5-Leu^6-Cys^7-Val^8-Asn^9-Val^10-Ala^11-Cys^12-Thr^13-Gly^14-Cys^15-Leu^16 | 55.0 | 96.1 | 97.9% and 98.47% | 97.2 | 97.9 | 74% and 93% | 66.6 | 86.0 | ˜98% | – | – | – | – | – | – | – | – | –
Boc-Asn (Trt)-Asp (OtBu)-Glu (OtBu)-Cys (Trt)-Glu (OtBu)-Leu-OH | – | – | – | – | – | – | – | – | – | 94.6 | 94.2 | 76.9 | 247.0 | 83.7 | 5.896 | – | – | –
Fmoc-C(Acm)VNVAC(Trt)T(tBu)G-OH | – | – | – | – | – | – | – | – | – | – | 90.1 | – | 213.7 | 66.8 | – | 87.8 | 61.3 | 3.337

Several values for one entry are separate records, joined by “and”; a condition that tells them apart may be missing. Identical values can stand only once. *: point of attachment. Trt = c1ccc(C(c2ccccc2)(c2ccccc2)*)cc1; Fmoc = O=C(OCC1c2ccccc2-c2ccccc21)*; Acm = CC(=O)NC*; tBu = CC(C)(C)*
